Source: paper PMC6389942
No constants are given. Whether binding was seen depends on the method and setting. Binding seen in cells or lysates may run through a third protein. Some binding calls cover weakened binding; strength is not graded here. Tags and fused reporters may be left off the sequences shown.

Legend:
Assay in all cases: co-IP; HEK293T cells co-expressing both proteins; lysis buffer 20 mM Tris/HCl pH 7.5, 50 mM NaCl, 1% TritonX-100, 5 mM EGTA, 1 mM DTT, 2 mM MgCl2; IP with FLAG antibody-conjugated M2 agarose, 2 h at 4 °C; western blotting
[1] = target: FLAG-PCNT N-terminal half (a.a. 1–1962) (human) (UniProt O95613)
[2] = target: FLAG-PCNT (pericentrin, full length) (human) (UniProt O95613)
[3] = target: T1, FLAG-PCNT a.a. 3139–3336 (human) (UniProt O95613)
T1 sequence: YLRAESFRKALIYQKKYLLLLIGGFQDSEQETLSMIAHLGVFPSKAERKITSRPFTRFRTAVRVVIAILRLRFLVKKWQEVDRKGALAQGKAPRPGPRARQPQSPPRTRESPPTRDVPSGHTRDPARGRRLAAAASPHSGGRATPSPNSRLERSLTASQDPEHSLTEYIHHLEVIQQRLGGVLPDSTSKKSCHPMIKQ

[4] = target: T2, FLAG-PCNT a.a. 2945–3216 (human) (UniProt O95613)
T2 sequence: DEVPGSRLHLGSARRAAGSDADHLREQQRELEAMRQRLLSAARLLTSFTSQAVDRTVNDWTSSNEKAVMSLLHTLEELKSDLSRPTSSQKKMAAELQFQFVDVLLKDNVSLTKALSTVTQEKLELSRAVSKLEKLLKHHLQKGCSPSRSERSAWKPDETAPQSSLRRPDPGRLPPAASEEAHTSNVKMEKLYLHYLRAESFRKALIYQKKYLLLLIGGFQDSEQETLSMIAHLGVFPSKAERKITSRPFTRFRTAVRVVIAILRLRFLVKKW

Measured: binding

B1: HA-Cep57 (centrosomal protein of 57 kDa, full length) (protein, UniProt Q86XR8-1 1-500)
chain: MAAASVSAASGSHLSNSFAEPSRSNGSMVRHSSSPYVVYPSDKPFLNSDLRRSPSKPTLAYPESNSRAIFSALKNLQDKIRRLELERIQAEESVKTLSRETIEYKKVLDEQIQERENSKNEESKHNQELTSQLLAAENKCNLLEKQLEYMRNMIKHAEMERTSVLEKQVSLERERQHDQTHVQSQLEKLDLLEQEYNKLTTMQALAEKKMQELEAKLHEEEQERKRMQAKAAELQTGLETNRLIFEDKATPCVPNARRIKKKKSKPPEKKSSRNYFGAQPHYRLCLGDMPFVAGKSTSPSHAVVANVQLVLHLMKQHSKALCNDRVINSIPLAKQVSSRGGKSKKLSVTPPSSNGINEELSEVLQTLQDEFGQMSFDHQQLAKLIQESPTVELKDKLECELEALVGRMEAKANQITKVRKYQAQLEKQKLEKQKKELKATKKTLDEERNSSSRSGITGTTNKKDFMKLRPGEKRRKNLQLLKDMQSIQNSLQSSSLCWDY
binds: [1] | [2] | [3] | [4]
